Source: paper PMC7001992

Experiments:
[1] = molecular target: T1, Myc-tagged Makorin 1 (Mkrn1) (Drosophila melanogaster) (UniProt Q9VP20); test: affinity purification with mass spectrometry; Myc-Mkrn1, Myc-Mkrn1^RING or Myc-GFP (control) expressed in S2R+ cells, Myc IP from lysate, LC-MS/MS with label-free quantification, 3 technical replicates; cutoff log2 fold change ≥ 2 and FDR ≤ 0.05
T1 sequence: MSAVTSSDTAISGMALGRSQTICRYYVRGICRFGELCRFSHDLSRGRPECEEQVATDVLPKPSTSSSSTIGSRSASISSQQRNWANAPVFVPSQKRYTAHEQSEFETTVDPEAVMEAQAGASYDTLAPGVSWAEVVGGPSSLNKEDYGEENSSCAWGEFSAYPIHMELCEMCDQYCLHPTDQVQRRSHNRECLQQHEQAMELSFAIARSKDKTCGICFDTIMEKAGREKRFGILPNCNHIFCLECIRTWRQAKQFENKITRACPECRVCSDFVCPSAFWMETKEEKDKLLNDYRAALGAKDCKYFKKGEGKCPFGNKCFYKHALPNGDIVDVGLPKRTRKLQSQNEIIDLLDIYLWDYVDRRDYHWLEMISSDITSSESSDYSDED

[2] = molecular target: T2, Myc-tagged Mkrn1 carrying a point mutation in the RING domain (Myc-Mkrn1^RING) (Drosophila melanogaster) (UniProt Q9VP20); test: as above
T2 sequence: T1 sequence with H239E

- binding [1]: no binding
- binding [2]: no binding
B1: eIF4E (protein, UniProt P48598 1-259)
chain: MQSDFHRMKNFANPKSMFKTSAPSTEQGRPEPPTSAAAPAEAKDVKPKEDPQETGEPAGNTATTTAPAGDDAVRTEHLYKHPLMNVWTLWYLENDRSKSWEDMQNEITSFDTVEDFWSLYNHIKPPSEIKLGSDYSLFKKNIRPMWEDAANKQGGRWVITLNKSSKTDLDNLWLDVLLCLIGEAFDHSDQICGAVINIRGKSNKISIWTADGNNEEAALEIGHKLRDALRLGRNNSLQYQLHKDTMVKQGSNVKSIYTL

Changes are numbered by the printed parent chain. These are yes or no findings as the source states them, for the method shown. Binding seen in cells or lysates may run through a third protein. Here binding means that the protein was enriched with, or labelled near, the bait; the list need not be complete. No binding means not detected with the bait. Tags and fused reporters may be left off the sequences shown.
